Test results taken from patent publication US20180235916A1, “ENHANCING BETA CELL REPLICATION AND/OR SURVIVAL” (priority 2015, published 2018).
At least one structure is not confirmed: it was looked up by name or label, or the drawing left a doubt.

Test system: human islets
Assay type: cell-based
Details: alprazolam 100 nM together with bicuculline 0-50 uM, FIG. 11
Experimental: FIG. 2. Human islets (50/well) were incubated in media with, or without, alprazolam (30 ng/ml) for 4 days in the presence of ^3H thymidine. Data shown are the average rate of proliferation relative to that of cultures with media alone (designated as 1). N=two independent studies with triplicate cultures. Data was very similar in both studies.
N=two independent studies

In the case of `CN1CCc2cc3c(cc2[C@H]1[C@@H]1OC(=O)c2c1ccc1c2OCO1)OCO3` [bicuculline], the “effect on ability of alprazolam to promote islet cell proliferation” value was “ablated the ability of alprazolam to promote islet cell proliferation”.
